Drawing on patent publication US20210214733A1, this text covers binding for 1 molecule.

The target of experiment [1] is MT5: recombinant VEGF MiniTrap (dimer) (human). The experiment is described as follows: affinity chromatography, MT5 captured on immobilised mAb and eluted at low pH.
Experiment [2] shares this target. As to the kind of experiment: affinity chromatography, ligand coupled to HiTrap NHS-activated HP column.

Results are given in words; binding and its absence hold for the method and conditions named. Some results given as binding are weak or reduced against the parent protein; the word gives no strength.

B1: mAb4 (a mouse anti-VEGFR1 mAb mouse IgG1) (antibody, V domains shown)
VH: EVQLVESGGDLVKPGGSLKLSCAASGFTFSDSGMSWVRQTPDKRLEWVATISSGGGYTYYSDSVEGRFTISRDNANNTLFLQMSSLKSEDTAMFYCARLGNYGGYYGMDYWGQGTSVTVSS
VL: DIQMTQSPSSLSASLGGKVTITCKTSQDSNKYIAWYQHKPGKGPRLLIHYTSTLQPGIPSRFSGSGSGRDYSFSISNLEPEDIATYYCLQYDNLWTFGGGTKLEIKR
For the molecule B1, the binding result in experiment [1] and in experiment [2] was “binds” throughout.
